The target of the assay is T1, cadherin-11 (CDH11), endogenous in human primary dermal fibroblasts (human (endogenous in primary dermal fibroblasts)) (UniProt P55287).
T1 sequence: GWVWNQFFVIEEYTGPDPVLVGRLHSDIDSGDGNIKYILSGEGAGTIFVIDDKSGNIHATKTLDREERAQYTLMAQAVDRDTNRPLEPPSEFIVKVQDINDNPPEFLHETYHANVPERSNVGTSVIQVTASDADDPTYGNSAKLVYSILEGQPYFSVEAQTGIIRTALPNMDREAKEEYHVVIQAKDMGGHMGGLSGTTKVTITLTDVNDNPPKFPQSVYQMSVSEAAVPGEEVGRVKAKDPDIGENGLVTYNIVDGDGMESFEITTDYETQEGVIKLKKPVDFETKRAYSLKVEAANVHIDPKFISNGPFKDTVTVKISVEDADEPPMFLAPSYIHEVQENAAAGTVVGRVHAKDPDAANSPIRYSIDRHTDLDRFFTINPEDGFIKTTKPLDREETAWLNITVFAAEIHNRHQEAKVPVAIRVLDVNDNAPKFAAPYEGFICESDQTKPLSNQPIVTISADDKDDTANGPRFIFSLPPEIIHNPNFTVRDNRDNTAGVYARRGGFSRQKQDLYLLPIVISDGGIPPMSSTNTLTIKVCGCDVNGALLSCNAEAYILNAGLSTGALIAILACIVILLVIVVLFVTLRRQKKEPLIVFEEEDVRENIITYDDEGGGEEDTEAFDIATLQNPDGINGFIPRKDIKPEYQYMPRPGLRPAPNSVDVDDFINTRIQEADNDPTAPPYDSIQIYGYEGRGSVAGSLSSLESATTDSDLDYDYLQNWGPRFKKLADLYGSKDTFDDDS
Briefly: co-IP; immunoprecipitation with anti-Frizzled and anti-CDH11 from lysates of human fibroblasts; both proteins endogenous.

These are yes or no findings as the source states them, for the method shown. In cells and extracts the contact can be indirect.

Consider “Frizzled (Wnt receptor), endogenous in human fibroblasts”, for which the binding result is “no binding”.
